Construct, isoform or probe ends are uncertain for at least one entry. At least one result comes from cells or an extract, where the contact may be indirect. At least one verdict rests on a figure or table, not on a statement of the authors.

By UniProt entry, the sequences of proteins in these tests, tags left out.
UniProt P01100, whole entry: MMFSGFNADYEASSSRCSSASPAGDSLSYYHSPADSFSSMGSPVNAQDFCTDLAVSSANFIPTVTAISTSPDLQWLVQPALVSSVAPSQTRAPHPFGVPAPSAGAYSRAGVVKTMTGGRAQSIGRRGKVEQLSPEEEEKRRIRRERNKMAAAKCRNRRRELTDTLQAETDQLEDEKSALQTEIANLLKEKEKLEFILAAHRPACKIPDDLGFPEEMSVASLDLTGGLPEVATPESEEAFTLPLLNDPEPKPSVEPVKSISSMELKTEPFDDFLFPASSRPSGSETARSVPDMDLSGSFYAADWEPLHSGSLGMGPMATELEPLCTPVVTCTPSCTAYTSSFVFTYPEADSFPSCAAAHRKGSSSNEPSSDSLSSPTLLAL

In series [1] the target is c-Fos (AP-1 complex in HeLa nuclear extract) (UniProt P01100). Nature of the series: EMSA supershift. The conditions noted are these: anti-c-Fos, faint supershift, self competition 1000x leaves some signal in HeLa; EMSA: nuclear extract (NE-PER), 4 C, 30 min, chemiluminescent kit; 7% native PAGE, 0.5x TBE; binding buffer, salt and pH not stated; protein in an extract; label: 5'-biotin. (A gel shift assay detects complexes by their altered migration in electrophoresis.)

In series [2] the target is c-Fos (AP-1 complex in SiHa nuclear extract) (UniProt P01100). Description: EMSA supershift. The settings on record: anti-c-Fos, faint supershift, complex competed by 1000x self; EMSA: nuclear extract (NE-PER), 4 C, 30 min, chemiluminescent kit; 7% native PAGE, 0.5x TBE; binding buffer, salt and pH not stated; protein in an extract; label: 5'-biotin.

Regarding “TGGATAAGGATGACGCACAGATTGTCC (double strand) [AP1M]”, the binding result in series [1] and in series [2] was “binds” each time.
On to “TGTTAATCACTGACTTCTGACTAGTGG (double strand) [AP1D]”, for which the binding result in series [1] and in series [2] was “binds” each time.
Turning to “TTACTAGGGATGACACAAGCATAAGTCATTT / AAATGACTTATGCTTGTGTCATCCCTAGTTA [AP1P]”, the binding result in series [1] and in series [2] was “binds” throughout.

Source of the values: paper PMC6694678.
